The values below come from PMC5122344.

Protein sequences, listed by entry. Tags and fused reporters are not part of them. Lines headed by an entry give the natural chain unless they say otherwise; changes in a name come on top. Residues count along the entry.
UniProt P02769, 25-607: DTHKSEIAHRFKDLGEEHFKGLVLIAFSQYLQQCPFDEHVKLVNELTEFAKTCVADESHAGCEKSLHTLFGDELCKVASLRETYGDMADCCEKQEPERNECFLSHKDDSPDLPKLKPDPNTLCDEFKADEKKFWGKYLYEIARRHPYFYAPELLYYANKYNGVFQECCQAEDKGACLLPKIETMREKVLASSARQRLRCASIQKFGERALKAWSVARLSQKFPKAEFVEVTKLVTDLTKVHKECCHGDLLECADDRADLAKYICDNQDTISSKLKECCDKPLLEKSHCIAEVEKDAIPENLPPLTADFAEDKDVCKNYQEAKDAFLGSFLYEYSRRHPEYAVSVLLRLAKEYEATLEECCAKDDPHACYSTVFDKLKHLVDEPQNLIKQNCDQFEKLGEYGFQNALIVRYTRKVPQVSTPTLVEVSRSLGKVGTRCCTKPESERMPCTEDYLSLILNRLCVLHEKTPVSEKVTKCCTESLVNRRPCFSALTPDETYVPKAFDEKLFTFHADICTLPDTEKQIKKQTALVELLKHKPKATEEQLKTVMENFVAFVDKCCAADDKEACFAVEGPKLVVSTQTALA
UniProt Q01860: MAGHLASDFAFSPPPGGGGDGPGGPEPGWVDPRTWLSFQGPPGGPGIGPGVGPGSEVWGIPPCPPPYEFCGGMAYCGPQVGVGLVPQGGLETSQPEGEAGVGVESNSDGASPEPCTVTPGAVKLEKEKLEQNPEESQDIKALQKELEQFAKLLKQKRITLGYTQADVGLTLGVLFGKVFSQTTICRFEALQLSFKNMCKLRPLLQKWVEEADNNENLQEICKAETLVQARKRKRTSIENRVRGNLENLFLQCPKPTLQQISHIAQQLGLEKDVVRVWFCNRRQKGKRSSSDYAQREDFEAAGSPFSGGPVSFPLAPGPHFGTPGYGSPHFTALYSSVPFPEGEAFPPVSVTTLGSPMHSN

No signal at the amounts used counts as a negative. For some of these results: For at least one entry, the source does not settle the construct or the ends of the probe. For some of these results: A weaker result is weaker than the reference pair of the same experiment.

In one series the target is BSA (bovine) (UniProt P02769). The experiment in a line: EMSA. Conditions: negative control; LI-COR Odyssey EMSA kit 1x binding buffer (composition and pH not given), 2.5 mM DTT, 0.25% Tween-20, 1 ug poly(dI-dC) in 20 ul, 20 min at RT; 4% native PAGE in 0.5x TBE; commercial protein; label: IRDye 700.
Another series deals with GST-OCT4 (human) (UniProt Q01860). The experiment in a line: EMSA. Conditions: LI-COR Odyssey EMSA kit 1x binding buffer (composition and pH not given), 2.5 mM DTT, 0.25% Tween-20, 1 ug poly(dI-dC) in 20 ul, 20 min at RT, 4% native PAGE in 0.5x TBE, recombinant protein, protein details: GST (N-terminal, pAcG2T), label: IRDye 700. A general note: Mobility shift assays separate free from complexed probe on a gel.

On to “GCCGAATTTGCATATTTGCATGGCTG (double strand) [octamer oligonucleotide (Ig heavy chain enhancer)]”, for which the binding result was “no binding” in the series with BSA (bovine); “binds more weakly” with GST-OCT4 (human) (OCT4 encapsulated in chitosan L-NPs (less efficient release), 30 ng per lane); “no binding” with GST-OCT4 (human) (soluble OCT4 after 7 weeks at 4 C (activity lost on storage), 100 ng); “no binding” with GST-OCT4 (human) (soluble OCT4 after 7 days at RT (activity lost on storage), 250 ng).
